These are yes or no findings as the source states them, for the method shown. For part of these data: In cells and extracts the contact can be indirect. Some entries that bind do so weakly or less than the wild type. Sequences can lack the tags named with a protein. Each block holds one molecule with its values, some of them ahead of it.
Key:
[1] = target: full-length RSK1, wild type, SmBiT tagged (human (cDNA from HEK293T or HeLa)) (UniProt Q15418); test: split reporter
[2] = target: T1, biotinylated unphosphorylated RSK1 PBM peptide (RSK1 725-735) (UniProt Q15418); test: holdup assay
T1 sequence (peptide, biotin attached to the N-terminal via a TTDS linker): RRVRKLPSTTL

Protein sequences, listed by entry. Tags and fused reporters are not part of them. Lines headed by an entry give the natural chain unless they say otherwise; changes in a name come on top. Residues count along the entry.
UniProt Q15418: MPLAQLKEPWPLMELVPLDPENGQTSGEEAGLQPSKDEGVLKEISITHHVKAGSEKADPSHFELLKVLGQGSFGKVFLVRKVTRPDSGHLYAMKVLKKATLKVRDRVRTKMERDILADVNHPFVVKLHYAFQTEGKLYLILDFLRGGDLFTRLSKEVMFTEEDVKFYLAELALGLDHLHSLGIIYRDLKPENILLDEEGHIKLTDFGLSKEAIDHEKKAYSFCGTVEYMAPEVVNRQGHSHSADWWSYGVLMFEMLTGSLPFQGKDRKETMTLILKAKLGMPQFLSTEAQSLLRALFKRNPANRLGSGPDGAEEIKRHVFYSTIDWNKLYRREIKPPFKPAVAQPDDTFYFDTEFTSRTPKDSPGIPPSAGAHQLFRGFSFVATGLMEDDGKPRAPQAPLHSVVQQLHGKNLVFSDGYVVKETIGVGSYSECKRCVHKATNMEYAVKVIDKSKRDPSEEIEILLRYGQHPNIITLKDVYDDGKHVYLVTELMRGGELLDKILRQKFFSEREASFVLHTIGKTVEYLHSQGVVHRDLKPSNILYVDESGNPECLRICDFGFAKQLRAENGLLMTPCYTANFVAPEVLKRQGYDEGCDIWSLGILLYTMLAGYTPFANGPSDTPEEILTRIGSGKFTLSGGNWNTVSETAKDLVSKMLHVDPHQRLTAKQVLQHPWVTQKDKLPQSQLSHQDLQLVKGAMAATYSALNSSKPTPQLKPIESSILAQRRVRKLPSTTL
UniProt Q96QZ7: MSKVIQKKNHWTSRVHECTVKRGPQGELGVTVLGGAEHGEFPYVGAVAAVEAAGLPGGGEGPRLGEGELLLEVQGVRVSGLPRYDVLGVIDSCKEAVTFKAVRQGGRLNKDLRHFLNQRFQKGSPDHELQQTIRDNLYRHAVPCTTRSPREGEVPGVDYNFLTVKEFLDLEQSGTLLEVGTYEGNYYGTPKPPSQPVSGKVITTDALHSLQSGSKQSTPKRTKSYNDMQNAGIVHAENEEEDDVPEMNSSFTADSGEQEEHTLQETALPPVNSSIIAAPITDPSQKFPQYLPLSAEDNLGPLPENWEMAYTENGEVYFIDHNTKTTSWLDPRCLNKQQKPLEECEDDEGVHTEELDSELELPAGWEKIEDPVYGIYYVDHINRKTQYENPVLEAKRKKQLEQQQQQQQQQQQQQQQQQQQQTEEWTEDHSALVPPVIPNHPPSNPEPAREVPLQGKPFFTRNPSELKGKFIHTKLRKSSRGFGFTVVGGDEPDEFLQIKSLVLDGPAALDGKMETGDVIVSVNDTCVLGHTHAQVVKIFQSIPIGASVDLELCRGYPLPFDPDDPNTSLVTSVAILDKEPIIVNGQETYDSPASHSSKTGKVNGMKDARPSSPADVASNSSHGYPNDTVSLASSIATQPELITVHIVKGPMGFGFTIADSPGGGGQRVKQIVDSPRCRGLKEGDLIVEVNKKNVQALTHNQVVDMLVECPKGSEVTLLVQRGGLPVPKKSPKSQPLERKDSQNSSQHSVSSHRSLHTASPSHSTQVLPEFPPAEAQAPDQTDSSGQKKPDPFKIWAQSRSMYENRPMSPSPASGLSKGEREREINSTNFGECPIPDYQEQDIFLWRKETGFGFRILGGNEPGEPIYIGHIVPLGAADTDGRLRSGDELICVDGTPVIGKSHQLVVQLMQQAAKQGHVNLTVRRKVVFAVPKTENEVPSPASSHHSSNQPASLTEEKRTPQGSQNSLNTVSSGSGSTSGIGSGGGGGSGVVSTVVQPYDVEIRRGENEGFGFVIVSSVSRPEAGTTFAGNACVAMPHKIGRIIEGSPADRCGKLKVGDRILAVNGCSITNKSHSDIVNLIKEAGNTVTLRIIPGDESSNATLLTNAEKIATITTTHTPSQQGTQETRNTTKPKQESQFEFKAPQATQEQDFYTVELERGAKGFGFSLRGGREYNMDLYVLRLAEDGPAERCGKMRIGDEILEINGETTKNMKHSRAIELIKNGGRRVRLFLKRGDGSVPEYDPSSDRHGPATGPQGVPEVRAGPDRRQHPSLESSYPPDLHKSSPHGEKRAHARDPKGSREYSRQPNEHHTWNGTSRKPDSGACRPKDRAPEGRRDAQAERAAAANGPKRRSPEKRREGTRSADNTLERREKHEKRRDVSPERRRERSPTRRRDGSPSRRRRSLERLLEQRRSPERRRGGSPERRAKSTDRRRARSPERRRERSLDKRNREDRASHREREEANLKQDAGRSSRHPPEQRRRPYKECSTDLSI
UniProt Q6P0Q8, residues 1104-1192: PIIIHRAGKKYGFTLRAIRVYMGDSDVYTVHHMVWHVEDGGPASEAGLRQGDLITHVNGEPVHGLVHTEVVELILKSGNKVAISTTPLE

[3] = target: full-length RSK1 L714E, SmBiT tagged (human (cDNA from HEK293T or HeLa)) (UniProt Q15418); test: split reporter

binding [1]: binds
Molecule: full-length MAGI1, LgBiT tagged (from UniProt Q96QZ7 1-1491)

binding [2]: binds
Molecule: PDZ domain of MAST2 (from UniProt Q6P0Q8 1104-1192) (domain or fragment)

binding [2]: binds
B2: PDZ domain of SYNJ2BP (MBP-PDZ) (domain or fragment, UniProt P57105 13-100)
chain: EINLTRGPSGLGFNIVGGTDQQYVSNDSGIYVSRIKENGAAALDGRLQEGDKILSVNGQDLKNLLHQDAVDLFRNAGYAVSLRVQHRL

binding [3]: binds
binding [1]: binds
B3: full-length SYNJ2BP, LgBiT tagged (protein, UniProt P57105 1-145)
chain: MNGRVDYLVTEEEINLTRGPSGLGFNIVGGTDQQYVSNDSGIYVSRIKENGAAALDGRLQEGDKILSVNGQDLKNLLHQDAVDLFRNAGYAVSLRVQHRLQVQNGPIGHRGEGDPSGIPIFMVLVPVFALTMVAAWAFMRYRQQL

The remaining lines, values behind:

B1: PARD3B (1-913), LgBiT tagged (protein, UniProt Q8TEW8 1-913)
chain: MKVTVCFGRTGIVVPCKEGQLRVGELTQQALQRYLKTREKGPGYWVKIHHLEYTDGGILDPDDVLADVVEDKDKLIAVFEEQEPLHKIESPSGNPADRQSPDAFETEVAAQLAAFKPIGGEIEVTPSALKLGTPLLVRRSSDPVPGPPADTQPSASHPGGQSLKLVVPDSTQNLEDREVLNGVQTELLTSPRTKDTLSDMTRTVEISGEGGPLGIHVVPFFSSLSGRILGLFIRGIEDNSRSKREGLFHENECIVKINNVDLVDKTFAQAQDVFRQAMKSPSVLLHVLPPQNREQYEKSVIGSLNIFGNNDGVLKTKVPPPVHGKSGLKTANLTGTDSPETDASASLQQNKSPRVPRLGGKPSSPSLSPLMGFGSNKNAKKIKIDLKKGPEGLGFTVVTRDSSIHGPGPIFVKNILPKGAAIKDGRLQSGDRILEVNGRDVTGRTQEELVAMLRSTKQGETASLVIARQEGHFLPRELKGEPDCCALSLETSEQLTFEIPLNDSGSAGLGVSLKGNKSRETGTDLGIFIKSIIHGGAAFKDGRLRMNDQLIAVNGESLLGKSNHEAMETLRRSMSMEGNIRGMIQLVILRRPERPMEDPAECGAFSKPCFENCQNAVTTSRRNDNSILHPLGTCSPQDKQKGLLLPNDGWAESEVPPSPTPHSALGLGLEDYSHSSGVDSAVYFPDQHINFRSVTPARQPESINLKASKSMDLVPDESKVHSLAGQKSESPSKDFGPTLGLKKSSSLESLQTAVAEVRKNDLPFHRPRPHMVRGRGCNESFRAAIDKSYDGPEEIEADGLSDKSSHSGQGALNCESAPQGNSELEDMENKARKVKKTKEKEKKKEKGKLKVKEKKRKEENEDPERKIKKKGFGAMLRFGKKKEDKGGKAEQKGTLKHGGLREEELEKMKEERE
binding [3]: binds
binding [1]: binds

B4: PDZ domain of ARHGEF12 (MBP-PDZ) (domain or fragment, UniProt Q9NZN5 72-151)
chain: CVIIQKDDNGFGLTVSGDNPVFVQSVKEDGAAMRAGVQTGDRIIKVNGTLVTHSNHLEVVKLIKSGSYVALTVQGRPPGS
binding [2]: binds

B5: PDZ domain of ARHGEF11 (domain or fragment, UniProt O15085 47-126)
chain: CVIIQKDQHGFGFTVSGDRIVLVQSVRPGGAAMKAGVKEGDRIIKVNGTMVTNSSHLEVVKLIKSGAYVALTLLGSSPSS
binding [2]: binds

Reference: paper doi:10.1101/419721 (bioRxiv, 2018)
